In patent US12338279B2, “Selective and potent inhibitory antibodies of myostatin activation” (SCHOLAR ROCK, INC., priority 2022, dated 2025):

Tested on: human pro-myostatin
Assay: SEC-MALS binding stoichiometry
Settings: MALS observed weight

B1: Ab123 Fab: Ab123 Fab fragment (antibody)
VH: EVQLVESGGGLVQPGGSLRLSCAASGFTFSKYDMSWVRQAPGKGLELVASISSSGGTRYYPDSVKGRFTISRDNAKNSLYLQMNSLRAEDTAVYYCAKDLWVASPGYGMDVWGQGTTVTVSS
light: DIVMTQSPLSLPVTPGEPASISCRSSQSLLHSSGHNYLHWYLQKPGQSPQLLIYLGSIRAPGVPDRFSGSGSGTDFTLKISRVEAEDVGVYYCMQALLNPPTFGGGTKVEIKRTVAAPSVFIFPPSDEQLKSGTASVVCLLNNFYPREAKVQWKVDNALQSGNSQESVTEQDSKDSTYSLSSTLTLSKADYEKHKVYACEVTHQGLSSPVTKSFNRGEC
- Observed Molecular Weight (kDa) of Fab:pro-myostatin complex: 137.5 kDa
